Test results published in PMC8166485.
These are yes or no findings as the source states them, for the method shown. In cells and extracts the contact can be indirect. Some entries that bind do so weakly or less than the wild type. Where a sequence is shown, tags or fusion partners need not be part of it.

Biological target: T1, Flag-tagged Trim35 (tripartite motif 35) (human (cDNA of human embryonic kidney 293FT cells)) (UniProt Q9UPQ4)
T1 sequence: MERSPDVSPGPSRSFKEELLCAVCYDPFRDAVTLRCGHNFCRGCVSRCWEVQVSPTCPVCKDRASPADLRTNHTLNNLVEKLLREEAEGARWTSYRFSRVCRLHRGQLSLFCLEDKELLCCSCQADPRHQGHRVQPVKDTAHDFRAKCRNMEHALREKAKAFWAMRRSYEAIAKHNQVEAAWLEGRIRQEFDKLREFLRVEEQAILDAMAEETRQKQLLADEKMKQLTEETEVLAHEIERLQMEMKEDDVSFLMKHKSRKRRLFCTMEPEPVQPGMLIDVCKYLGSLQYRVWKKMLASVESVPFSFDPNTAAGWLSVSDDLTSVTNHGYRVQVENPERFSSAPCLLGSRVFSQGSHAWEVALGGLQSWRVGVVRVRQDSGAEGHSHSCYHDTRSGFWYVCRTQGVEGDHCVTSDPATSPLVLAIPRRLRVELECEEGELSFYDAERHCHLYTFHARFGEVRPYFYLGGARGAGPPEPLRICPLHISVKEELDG
Test: co-IP; 293FT cells transfected with Flag-tagged Trim35 or an empty vector; 48 h after transfection cell lysates subjected to IP with anti-Flag beads and immunoblotting

B1: CLOCK (protein, UniProt O15516 1-846)
chain: MLFTVSCSKMSSIVDRDDSSIFDGLVEEDDKDKAKRVSRNKSEKKRRDQFNVLIKELGSMLPGNARKMDKSTVLQKSIDFLRKHKEITAQSDASEIRQDWKPTFLSNEEFTQLMLEALDGFFLAIMTDGSIIYVSESVTSLLEHLPSDLVDQSIFNFIPEGEHSEVYKILSTHLLESDSLTPEYLKSKNQLEFCCHMLRGTIDPKEPSTYEYVKFIGNFKSLNSVSSSAHNGFEGTIQRTHRPSYEDRVCFVATVRLATPQFIKEMCTVEEPNEEFTSRHSLEWKFLFLDHRAPPIIGYLPFEVLGTSGYDYYHVDDLENLAKCHEHLMQYGKGKSCYYRFLTKGQQWIWLQTHYYITYHQWNSRPEFIVCTHTVVSYAEVRAERRRELGIEESLPETAADKSQDSGSDNRINTVSLKEALERFDHSPTPSASSRSSRKSSHTAVSDPSSTPTKIPTDTSTPPRQHLPAHEKMVQRRSSFSSQSINSQSVGSSLTQPVMSQATNLPIPQGMSQFQFSAQLGAMQHLKDQLEQRTRMIEANIHRQQEELRKIQEQLQMVHGQGLQMFLQQSNPGLNFGSVQLSSGNSSNIQQLAPINMQGQVVPTNQIQSGMNTGHIGTTQHMIQQQTLQSTSTQSQQNVLSGHSQQTSLPSQTQSTLTAPLYNTMVISQPAAGSMVQIPSSMPQNSTQSAAVTTFTQDRQIRFSQGQQLVTKLVTAPVACGAVMVPSTMLMGQVVTAYPTFATQQQQSQTLSVTQQQQQQSSQEQQLTSVQQPSQAQLTQPPQQFLQTSRLLHGNPSTQLILSAAFPLQQSTFPQSHHQQHQSQQQQQLSRHRTDSLPDPSKVQPQ
For B1, the binding was “binds”.
